Test results from PMC10371024.
Results are given in words; binding and its absence hold for the method and conditions named. For part of these data: In cells and extracts the contact can be indirect. Some entries that bind do so weakly or less than the wild type.

Assays:
Details in all cases: remark: other sources report otherwise
[1] = molecular target: T1, Fas associated via death domain (FADD) (mouse (endogenous in MDFs and BMDMs)), Q61160; assay: SEC; lysates of Cflip^WT and Cflip^D377A MDFs treated with TNF, Smac mimetic and emricasan for 4 hours, separated on a Superose 6 column; fractions immunoblotted; fractions 17 to 21, apparent mass ~2 MDa
T1 chain: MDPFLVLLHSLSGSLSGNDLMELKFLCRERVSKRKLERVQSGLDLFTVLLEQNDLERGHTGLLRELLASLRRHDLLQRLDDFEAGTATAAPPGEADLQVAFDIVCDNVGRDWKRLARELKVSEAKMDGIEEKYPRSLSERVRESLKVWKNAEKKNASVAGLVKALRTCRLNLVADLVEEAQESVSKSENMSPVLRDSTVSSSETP

[2] = molecular target: T1, Fas associated via death domain (FADD) …; assay: co-IP; FADD immunoprecipitated from pooled Superose 6 fractions 17 to 21 of lysates of WT cells treated with TBE; immunoblotting (fig. S5A)
[3] = molecular target: T1, Fas associated via death domain (FADD) …; assay: co-IP; FADD-specific antibody on protein G Sepharose; lysates of WT and Cflip^D377A MDFs treated with TNF and emricasan and of BMDMs treated with TNF, birinapant and emricasan; 1% Triton X-100 lysis buffer, 4 hours at 4°C; immunoblotting

Measured: binding

B1: RIPK3, Q9QZL0 1-486 (protein)
chain: MSSVKLWPTGASAVPLVSREELKKLEFVGKGGFGVVFRAHHRTWNHDVAVKIVNSKKISWEVKAMVNLRNENVLLLLGVTEDLQWDFVSGQALVTRFMENGSLAGLLQPECPRPWPLLCRLLQEVVLGMCYLHSLNPPLLHRDLKPSNILLDPELHAKLADFGLSTFQGGSQSGSGSGSGSRDSGGTLAYLDPELLFDVNLKASKASDVYSFGILVWAVLAGREAELVDKTSLIRETVCDRQSRPPLTELPPGSPETPGLEKLKELMIHCWGSQSENRPSFQDCEPKTNEVYNLVKDKVDAAVSEVKHYLSQHRSSGRNLSAREPSQRGTEMDCPRETMVSKMLDRLHLEEPSGPVPGKCPERQAQDTSVGPATPARTSSDPVAGTPQIPHTLPFRGTTPGPVFTETPGPHPQRNQGDGRHGTPWYPWTPPNPMTGPPALVFNNCSEVQIGNYNSLVAPPRTTASSSAKYDQAQFGRGRGWQPFHK
binds: all assays above
